Data: PubChem BioAssay AID504648 (National Center for Advancing Translational Sciences (NCATS), 2011)
Screen size: about 390,000 compounds; about 610 (0.16%) were called active. Inconclusive results, whose numbers are uncertain, are shown with a selection of clear calls. Calls come from the whole dose curve; as a rule, active = well fitted inhibition curve with a large enough effect; inconclusive = small, poorly fitted or top-dose-only effect, or effect the other way, or another doubt; inactive = no such curve, though single readings can be large or run the other way. Potencies beside an inconclusive call are fits to weak or partial responses and may not hold up.
Potency is the fitted concentration of half-maximal effect.

Assay: Nrf2 qHTS screen for inhibitors: counterscreen for cytotoxicity
Settings: A549 ARE-Fluc cells, CellTiter-Fluor viability, 18-24 h; series mostly up to 46 µM
How it was run: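 Cytotoxicity counterscreen: CellTiter-Fluor fluorescence was measured in A549 ARE_Fluc cells after 18-24 h of compound exposure in a concentration series. The subsequent BugLite luminescent read reports ARE-luciferase activity.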
For O=S(=O)(c1ccccc1)N1CCN(Cc2ccccc2C(F)(F)F)CC1, the Potency was “inactive”.
For Cc1cccc(NC(=O)/C(C#N)=C/c2ccco2)c1, the Potency was “inactive”.
In the case of COc1ccc(/[N+]([O-])=C/c2ccco2)cc1, the Potency was “inactive”.
With CC(C)c1ccc(NC(=O)C2CSC3(C)CCC(=O)N23)cc1 (configuration not stated) the Potency was “inactive”.
In the case of CNc1cccnc1C=NNC(N)=S, the Potency was inconclusive: 8.2 µM [falling, partial curve].
In the case of CCCOc1c(OC)cccc1C1CC(=O)Nc2cc3c(cc21)OCCO3 (configuration not stated), the Potency was inconclusive: 20.6 µM [falling, partial curve, poor fit].
With N#C/C(=C\c1c[nH]c2ccccc12)C(=O)Nc1ncc(Cc2ccc(Cl)cc2Cl)s1 the Potency was inconclusive: 16.4 µM [falling, single point].
For CCCCNC(=O)CN1C(=O)c2cccc(N)c2C1=O, the Potency was inconclusive: 23.1 µM [activator, single point].
In the case of O=C(CCN1CCCC1)c1cccs1, the Potency was “inactive”.
For CCCC/C(C)=N/NC(=O)CN(c1ccc(Br)cc1)S(=O)(=O)c1ccccc1, the Potency was “inactive”.
With CCOC(=O)C1=C(CC)Nc2ccccc2N=C1NC(=O)Nc1ccc(Cl)c(Cl)c1 the Potency was inconclusive: 20.6 µM [falling, single point].
With CC[C@@]1(O)C(=O)OCc2c1cc1n(c2=O)Cc2cc3c(CN(C)C)c(O)ccc3nc2-1 the Potency was inconclusive: 5.8 µM [activator, partial curve].
For CS(=O)(=O)N(CC(=O)Nc1cccc([N+](=O)[O-])c1)c1ccccc1, the Potency was inconclusive: 3.26 µM [activator, full curve, poor fit].
With O=S(=O)(c1ccc(F)cc1)N(CC(O)Cn1c2ccccc2c2ccccc21)c1ccccc1 (configuration not stated) the Potency was inconclusive: 20.6 µM [falling, partial curve, poor fit].
With O=C(O)c1ccc(Cl)c(S(=O)(=O)N2CCCCCC2)c1 the Potency was inconclusive: 23.1 µM [falling, single point].
With CCN1C[C@@H]2[C@@H]3C(=O)N(Cc4ccccc4)C(=O)[C@@H]3[C@](Cc3ccccc3)(C1=O)N2C(=O)c1ccc(C(C)(C)C)cc1 the Potency was inconclusive: 16.4 µM [falling, partial curve, poor fit].
With CCC1(CC)NC(=O)N(CC(=O)OCn2nnc3ccccc3c2=O)C1=O the Potency was inconclusive: 4.11 µM [activator, partial curve, poor fit].
With COc1ccc(NS(=O)(=O)c2ccc(NC(=O)c3ccc(N(C)S(C)(=O)=O)cc3)cc2)cc1 the Potency was inconclusive: 29.1 µM [falling, partial curve, poor fit].
In the case of CN(Cc1ccccc1)CC(O)COc1ccc(CNCCc2cccnc2)cc1 (configuration not stated), the Potency was inconclusive: 5.8 µM [falling, partial curve].
In the case of Cc1ccc(-c2csc3nc(C)n(-n4c(C)ccc4C)c(=O)c23)o1, the Potency was “inactive”.
For COc1ccc(-[n+]2c(C)cc(/C=C3\Sc4ccccc4N3C)cc2C)cc1, the Potency was active: 9.2 µM.
For COc1cc2c(cc1NC(=O)Nc1ccccc1)oc1ccccc12, the Potency was inconclusive: 29.1 µM [falling, single point].
In the case of Cc1ccc(C)c(OCC(=O)Nc2ccc(S(=O)(=O)Nc3onc(C)c3C)cc2)c1, the Potency was inconclusive: 18.4 µM [falling, partial curve, poor fit].
With Cc1cc(C)n(-c2cc(N3CCOCC3)nc(-c3ccccc3)n2)n1 the Potency was inconclusive: 16.4 µM [activator, partial curve, poor fit].
With CC(=O)c1ccc(NC(=O)COc2ccccc2-c2nc(-c3ccc(C)cc3)no2)cc1 the Potency was “inactive”.
For O=C(O)c1ccc(N2N=C(c3ccccc3)CC2c2ccccc2)cc1 (configuration not stated), the Potency was inconclusive: 16.4 µM [activator, partial curve, poor fit].
With CCOc1ccc(-c2cnc(NCc3cccc4ccccc34)n2CCOC)cc1 the Potency was inconclusive: 20.6 µM [falling, single point].
With COc1ccc(C)cc1S(=O)(=O)N(CC(=O)O)c1ccc(F)cc1 the Potency was “inactive”.
For CN(C(=O)c1ccncc1)C1CCS(=O)(=O)C1 (configuration not stated), the Potency was “inactive”.
In the case of O=S1(=O)c2ccc(Br)cc2N2CC[C@H](C2)N1Cc1ccc(Cl)cc1, the Potency was “inactive”.
For O=[N+]([O-])c1ccc(/C=N/Nc2nc(N3CCCC3)nc(N3CCCC3)n2)o1, the Potency was inconclusive: 29.1 µM [falling, single point].
For Cc1ccccc1-c1nc(CN2CCC(C(=O)NCCCN3CC(C)CC(C)C3)CC2)c(C)o1 (configuration not stated), the Potency was inconclusive: 23.1 µM [falling, single point].
In the case of Cc1cc(C)c2c(NC(=O)CCl)nn(C)c2n1, the Potency was inconclusive: 18.4 µM [falling, partial curve, poor fit].
In the case of CCOC(=O)c1c(NC(=O)c2cccs2)sc2c1CCCC2, the Potency was inconclusive: 32.6 µM [activator, partial curve, poor fit].
For C(=N\Nc1nc2ccccc2[nH]1)/c1ccc2c(c1)OCCO2, the Potency was inconclusive: 29.1 µM [activator, single point].
In the case of Cc1cc(C(=O)N/N=C/c2c(C)nn(-c3ccccc3)c2C)c(C)o1, the Potency was “inactive”.
In the case of CC(C)(C)S(=O)(=O)/C(C#N)=N/Nc1ccc(S(N)(=O)=O)cc1, the Potency was inconclusive: 18.4 µM [falling, partial curve].
In the case of COc1ccc(NC(=O)CSc2nc(-c3cc(OC)c(OC)c(OC)c3)[nH]c2-c2ccc(F)cc2)cc1, the Potency was inconclusive: 16.4 µM [falling, partial curve, poor fit].
In the case of O=C1c2ccccc2C(=O)c2c1cccc2N(CCO)CCO, the Potency was inconclusive: 16.4 µM [falling, partial curve, poor fit].
In the case of O=C(Nc1cccc(Cl)c1)C1CCCN(S(=O)(=O)c2ccc(F)cc2)C1 (configuration not stated), the Potency was inconclusive: 13 µM [falling, partial curve, poor fit].
In the case of Cc1ccc(-c2nn(-c3cc(N4CCNCC4)ccc3[N+](=O)[O-])c(=O)c3ccccc23)cc1, the Potency was inconclusive: 18.4 µM [falling, partial curve].
For O=C(Nc1cccc2ccccc12)N1CCN(c2ccccc2)CC1, the Potency was “inactive”.
For CCCCN(CCO)c1ncnc2sc(-c3ccccc3)cc12, the Potency was “inactive”.
With COc1ccc(N2CCN(c3ncnc4c3cnn4-c3ccc(F)cc3)CC2)cc1 the Potency was “inactive”.
In the case of Cc1cccc(C)c1NC(=O)CN1CCN(CCCC(c2ccc(F)cc2)c2ccc(F)cc2)CC1, the Potency was inconclusive: 29.1 µM [falling, single point].
With Cc1ccc(Cl)cc1NC(=O)CC(O)(C(F)(F)F)C(F)(F)F the Potency was inconclusive: 18.4 µM [falling, single point].
With Oc1ccccc1CC=NC1CCCCC1 the Potency was inconclusive: 2.59 µM [activator, full curve, poor fit].
For O=C(NC1CC(=O)N(c2ccc(Cl)cc2)C1)c1ccc2c(c1)OCO2 (configuration not stated), the Potency was “inactive”.
For O=C(Nc1ccc2nc(-c3cccs3)[nH]c2c1)c1cccs1, the Potency was inconclusive: 16.4 µM [falling, partial curve, poor fit].
With COc1ccc(S(=O)(=O)Nc2ccccc2OC)cc1NC(=O)c1cc2ccccc2oc1=O the Potency was “inactive”.
For N=c1n(CCN2CCCCC2)c2ccccc2n1CC(O)COc1ccc(Cl)cc1Cl (configuration not stated), the Potency was inconclusive: 29.1 µM [falling, single point].
In the case of Cc1ccc(CN2CCN(CC(=O)NCc3ccc(Cl)cc3)C2=O)cc1, the Potency was inconclusive: 25.9 µM [activator, partial curve, poor fit].
For CCOC(=O)CCNC(=O)N1CCCC(C(=O)c2cccc(OC(C)C)c2)C1 (configuration not stated), the Potency was “inactive”.
In the case of Cc1ccc(-c2nc3ncccc3o2)cc1NC(=O)CC(C)C, the Potency was “inactive”.
In the case of O=C(Nc1ccc(N2CCOCC2)cc1)c1cccc(S(=O)(=O)N2CCCC2)c1, the Potency was inconclusive: 6.51 µM [activator, partial curve, poor fit].
For O=C(CCl)Nc1cccc(S(=O)(=O)NC2=NCCC2)c1, the Potency was inconclusive: 25.9 µM [falling, partial curve].
With CC(NC(=O)Nc1ccc(Cl)c(Cl)c1)C(c1ccccc1)N1CCOCC1 (configuration not stated) the Potency was inconclusive: 18.4 µM [falling, single point].
In the case of COc1ccc(CC(=O)Nc2cccc(-c3ccc4nncn4n3)c2)cc1OC, the Potency was inconclusive: 29.1 µM [falling, single point].
With Cc1ccc2oc(=O)c(/C=C(\O)c3ccco3)nc2c1 the Potency was “inactive”.
For CC(C)C(=O)N1CCN(c2ccc(NC(=O)c3ccc4c(c3)OCCO4)cc2Cl)CC1, the Potency was inconclusive: 29.1 µM [falling, single point].
For O=C(NC(NC(=S)Nc1ccc(Cl)cc1Cl)C(Cl)(Cl)Cl)c1cccc([N+](=O)[O-])c1 (configuration not stated), the Potency was inconclusive: 20.6 µM [falling, single point].
In the case of Oc1c(N=Nc2ccccn2)ccc2ccccc12, the Potency was inconclusive: 18.4 µM [falling, partial curve, poor fit].
For COc1ccc(C)cc1-n1c(SCC(=O)NCC2CCCO2)nc2c([nH]c3ccccc32)c1=O (configuration not stated), the Potency was inconclusive: 16.4 µM [falling, partial curve, poor fit].
In the case of Cc1c(NC(=O)c2cc(C(C)C)on2)c(=O)n(-c2ccccc2)n1C, the Potency was inconclusive: 20.6 µM [activator, partial curve, poor fit].
For Cn1cc(CN2CCCC(CO)(Cc3ccccc3)C2)c2ccccc21 (configuration not stated), the Potency was inconclusive: 29.1 µM [falling, single point].
In the case of O=C(c1ccco1)N(CCC(c1ccccc1)c1ccco1)Cc1ccc(F)cc1 (configuration not stated), the Potency was inconclusive: 29.1 µM [falling, single point].
For O=C(Nc1ccccc1)Nc1cc(Cl)cc(Cl)c1, the Potency was inconclusive: 23.1 µM [falling, single point].
